PubChem BioAssay AID504793 | Drosophila RNAi Screening Center – 2011
The screen tested about 23,000 reagents; below is an unselected part of those that have a named target and a result. Over the whole deposit, 62 (0.27%) are marked active. 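Calls come from follow-up tests whose scores are not deposited, so confirmed genes may have low counts here; counts are not normalised per plate.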 Raw values are not corrected between plates. A number with no mark means an inactive call. Reagents against one gene are numbered here. Names joined by + are all predicted targets of the reagent.

Aim: 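Genes required for cells to halt at G2/M after double-strand DNA breaks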 (primary screen)
Cells: Drosophila S2R+ cells
Knock-down reagent: long dsRNA against Drosophila genes, about 0.25 µg dsRNA per well
Time to read-out: 4 days of dsRNA, then 4 hours of drug before read-out
Challenge: doxorubicin 0.5 µM for 4 hours to cause double-strand breaks, in cells also given a low, harmless dose of dsRNA against nbs to sensitise the assay
Read-out: 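Mitotic index as the number of phospho-histone H3-positive cells in each well following doxorubicin, given as raw counts without normalisation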
Scale: mitotic cells: higher = more cells in mitosis, weaker G2 arrest
Call rule: 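Genes are called active only when high mitotic counts were reproduced with independent dsRNAs and mitosis was checked for delay without damage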
Calls: active = confirmed in follow-up tests; inactive = not confirmed

Gene	reagent	mitotic cells, replicate 1	mitotic cells, replicate 2
CG7560	1	6	
CG17221	1	6	
CG17221	2	2	
Ir94f	1	6	
CG4558	1	10	
lncRNA:CR32368	1	13	
lncRNA:CR32368	2	5	
CG4098	1	13	
CG33502 + CG32857 + CG32500	1	15	
CG33502 + CG32857 + CG32500	2	11	
unc-119	1	10	
unc-119	2	6	
wus	1	3	
CG12769	1	2	
twi	1	8	
twi	2	1	
CG31210 (retired record) + CG4836	1	18	
Lint-1	1	10	
Lint-1	2	9	
CG9396	1	6	
CG9396	2	8	
tadr	1	3	
CG13053	1	4	
rump	1	9	
w-cup	1	5	
Hrb87F	1	3	
Hrb87F	2	6	
CG32833	1	2	
CG11983	1	5	
St2	1	9	
St2	2	9	
CG8726	1	3	
CG8726	2	5	
cpb	1	2	
cpb	2	7	
CG30419	1	2	18
CG30419	2	8	
CG30419	3	8	
His-Psi:CR31616 + His-Psi:CR31615	1	8	
cana + CG33695	1	7	
wge	1	6	
wge	2	8	
CG12517	1	6	
CG8414	1	7	
CG1142	1	1	
CG1142	2	4	
